Source: patent publication US11944090B2, “Compositions and methods for attracting fire ants” (The United States of America, as represented by The …, priority 2021, dated 2024)

Assay: GC-MS quantification of oxo fatty acids in individual male alates
Design: species or system S. invicta
Settings: reproductive system extract, mean±SE, n=12
Procedure: Sample preparation and chemical analysis: The reproductive system was pulled out from male […] using forceps and placed in a glass insert, crushed using a metal wire, and extracted with 50 μL dichloromethane for at least 2 hours. No sample clean-up was needed. One microliter extraction was injected into the GC-MS. Chemical identification was confirmed by comparing the retention times and mass spectra of samples to those of synthetic standards. For quantification, 4,6-dioxoheptanoic acid was used as an internal standard. Each reproductive system was extracted using 50 μl 0.044 mg/ml 4,6-dioxoheptanoic acid dichloromethane solution. Standard curves were built using a series of 10-oxo-dodecanoic acid and 11-oxo-doedecanoic acid solutions that were prepared using 0.044 mg/ml 4,6-dioxoheptanoic acid dichloromethane solution. The ratios of peak areas of 10-oxo- and 11-oxo-dodecanoic acids to those of the 4,6-dioxoheptanoic acid were used to develop standard curves. Twelve male […], each from a different colony, were used for quantification. Gas Chromatography-Mass Spectrometry (GC-MS): An Agilent 7890A gas chromatograph coupled to an Agilent 5975 mass selective detector (Santa Clara, CA) was used. A DB-5 capillary column (30 m×0.25 mm i.d., 0.25 μm film thickness) was used. […]

SMILES	concentration of fatty acid per ant [ng/ant]
CCC(=O)CCCCCCCCC(=O)O [10-oxo-dodecanoic acid]	11.09±4.26
CC(=O)CCCCCCCCCC(=O)O [11-oxo-dodecanoic acid]	10.90±4.18
